Results reported in PMC11879112.

Biological target: T1, FASTKD4 (purified) (Homo sapiens) (UniProt Q969Z0)
T1 sequence (looked up): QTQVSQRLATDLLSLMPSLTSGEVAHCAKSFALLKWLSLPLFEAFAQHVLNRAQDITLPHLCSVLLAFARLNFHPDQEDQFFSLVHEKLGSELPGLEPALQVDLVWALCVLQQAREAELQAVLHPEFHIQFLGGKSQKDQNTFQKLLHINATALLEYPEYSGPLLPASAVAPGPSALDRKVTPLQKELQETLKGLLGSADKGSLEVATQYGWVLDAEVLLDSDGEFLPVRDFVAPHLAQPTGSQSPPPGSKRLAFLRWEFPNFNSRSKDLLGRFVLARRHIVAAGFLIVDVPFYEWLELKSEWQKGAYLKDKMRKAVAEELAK
Assay: EMSA
Conditions: EMSA: 10 mM HEPES pH 8.0, 1 mM EDTA, 50 mM KCl, 2 mM DTT, 0.1 mg/ml fatty acid-free BSA, 0.02% Tween-20, room temperature 30 min, 6% PAGE in TAE; recombinant protein; residues 309-631; protein details: MBP (modified pET-MBP, Ni-column purified); label: 5' FAM

CAAAAAGGAUUAGACUGAACCGAAUAAAAAAAAAAAAAAAAAAAAAAAAA [ND3-polyA-RNA]
binding result: binds

The exact form of at least one protein or probe is not confirmed. At least one verdict rests on a figure or table, not on a statement of the authors. Protein sequences can lack the tags named with them.
